Test results: paper PMC3432004
Results are given in words; binding and its absence hold for the method and conditions named. In cells and extracts the contact can be indirect. Some binding calls cover weakened binding; strength is not graded here.

By UniProt entry, the sequences of proteins in these tests, tags left out.
UniProt O00401: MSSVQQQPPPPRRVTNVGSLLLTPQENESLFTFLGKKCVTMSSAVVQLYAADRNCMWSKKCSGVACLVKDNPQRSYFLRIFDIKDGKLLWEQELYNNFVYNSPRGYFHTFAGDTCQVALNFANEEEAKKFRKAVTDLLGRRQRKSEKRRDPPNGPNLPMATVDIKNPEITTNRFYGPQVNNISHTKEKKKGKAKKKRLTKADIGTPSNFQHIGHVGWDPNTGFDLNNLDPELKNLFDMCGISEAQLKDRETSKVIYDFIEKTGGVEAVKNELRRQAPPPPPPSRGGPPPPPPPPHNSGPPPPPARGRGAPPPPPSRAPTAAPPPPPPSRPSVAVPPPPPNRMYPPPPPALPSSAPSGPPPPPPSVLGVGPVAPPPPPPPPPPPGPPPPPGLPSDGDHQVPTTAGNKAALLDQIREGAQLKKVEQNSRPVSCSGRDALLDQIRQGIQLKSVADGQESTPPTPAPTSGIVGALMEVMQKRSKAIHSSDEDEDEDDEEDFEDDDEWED

Assays:
[1] = target: T1, Claudin-5 (endogenous, MDA-MB-231^pEF6 control cells) (human (endogenous in MDA-MB-231)) (UniProt O00501); experiment: co-IP; cell lysate precipitated with anti-Claudin-5 antibody (1:100, 2 h) and protein A/G agarose beads overnight; immunoblot for N-WASP and ROCK 1
T1 sequence: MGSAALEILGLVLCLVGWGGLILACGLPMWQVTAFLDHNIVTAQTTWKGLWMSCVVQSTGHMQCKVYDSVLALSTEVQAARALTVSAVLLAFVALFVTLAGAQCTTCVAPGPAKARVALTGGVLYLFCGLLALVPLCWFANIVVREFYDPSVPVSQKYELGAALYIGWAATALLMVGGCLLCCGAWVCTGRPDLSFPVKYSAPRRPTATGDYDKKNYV

[2] = target: T2, Claudin-5 (over-expressed, MDA-MB-231^CL5exp cells) (human) (UniProt O00501); experiment: as above
T2 sequence: T1 sequence

- binding [1]: binds
- binding [2]: binds
Substance: Neuronal Wiskott-Aldrich syndrome protein (from UniProt O00401 1-505)
